Test results taken from PubChem BioAssay AID2685 (National Center for Advancing Translational Sciences (NCATS), 2010).
Screen size: about 320,000 compounds; about 2,100 (0.66%) were called active. Calls come from the whole dose curve; as a rule, active = well fitted inhibition curve with a large enough effect in the signal ratio, with a control signal flat (not every such curve was filed as active); inconclusive = small, poorly fitted or top-dose-only effect, or effect the other way, or a change in a side signal; inactive = flat fitted curve, though single readings scatter; the % refers to the signal ratio. Inconclusive means that the source gave no clear call. A potency beside an inconclusive call is a rough fit, not a confirmed value.

assay: qHTS Assay for Lipid Storage Modulators in Drosophila S3 Cells; settings: BODIPY lipid droplet fluorescence, 18-24 h, cells fed with added oleic acid; lipid storage change, negative = inhibition: at 46.1 µM (top of the series) unless noted
Summary of the method: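 Drosophila S3 cells got compounds at several concentrations plus oleic acid (400 uM solution). Laser-scanning cytometry with 488 nm excitation read lipid droplets at 500-530 nm and cells at 575-640 nm. Percent activity was relative to 20 uM Triacsin C.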
% is set by controls: 0 for no effect and ±100 for the full control effect; potency is the fitted concentration of half-maximal effect.

SMILES | lipid storage change, negative = inhibition | Potency
[O-][N+]1=C2CCC/C(=N\O)C2=NC12CCCCC2 | inconclusive: -40.8% | –
CCOC(=O)c1ccc2c(c1)N(Cc1ccccc1C)C(=O)c1ccccc1S2=O (centres undefined) | inconclusive: -0.102% | –
COc1ccc(NC(=O)CSc2n[nH]c(=O)n2Cc2ccccc2)cc1Cl | – | inconclusive: 6.51 µM [activator, single point]
CSCC(=O)N1CCCC(CNC(=O)c2ccccc2Cl)C1 (centres undefined) | inconclusive: 33% | –
COc1ccc(C2C(C(=O)c3ccc(C)o3)=C(O)C(=O)N2Cc2ccco2)cc1OC (centres undefined) | inconclusive: -4.84% | –
O=C(Nc1ccc(S(=O)(=O)N2CCOCC2)cc1)c1c(F)cccc1F | inconclusive: 2.25% | –
COc1ccc(CCC(=O)N2CCCC(Nc3ccccc3)C2)cc1OC (centres undefined) | – | inconclusive: 1.84 µM [activator, full curve, poor fit]
O=C(NC12CC3CC(CC(C3)C1)C2)N1CCN(c2nc(-c3ccccc3)cs2)CC1 | inconclusive: -25.9% | –
CC(C)(C)OC(=O)N1Cc2ccccc2C[C@H]1C(=O)NCC(=O)NC1CCCC1 | inconclusive: 0.549% | –
CCN(CC)C(=O)Cn1cc(S(=O)(=O)CC(=O)Nc2cc(OC)ccc2OC)c2ccccc21 | inconclusive: -47.8% | –
CC(C)c1ccc(OCc2cccc(C(=O)N/N=C/c3cccnc3)c2)cc1 | – | inconclusive: 1.64 µM [activator, full curve, poor fit]
COc1ccc(CC(=O)N(Cc2ccccc2)c2ccc(C)cc2)cc1S(=O)(=O)N1CCOCC1 | inconclusive | –
O=C(NCCc1ccncc1)Nc1ccc(Cl)c(Cl)c1 | inconclusive: 42.8% | –
CC1(C)CC(=O)C2=C(C1)OC(c1ccncc1)C(C#N)=C2N (centres undefined) | – | inconclusive: 11.6 µM [activator, partial curve]
COC(=O)[C@@H]1C[C@H]2CC[C@H](O)C[C@H]2N1Cc1ccc(C)s1 | inconclusive: 8.52% | –
N=c1c2c3c(sc2ncn1Cc1ccccc1)CCCC3 | inconclusive: 25.5% | –
Cc1ccc(-n2c(-c3ccco3)nc3c(cnn3-c3ccccc3C)c2=O)cc1 | – | inconclusive: 2.06 µM [activator, partial curve, poor fit]
NC(=O)c1ccccc1OCC(=O)NS(=O)(=O)c1ccccc1 | inconclusive: -35.1% | –
COCCn1c(N)c(Sc2ccc([N+](=O)[O-])cc2)c(=O)[nH]c1=O | inconclusive: 18.3% | –
COc1ccc(CNC(=O)c2ccc3ccccc3n2)cc1 | inconclusive: 19.1% | –
COCCN(C(=O)c1snc(C(N)=O)c1N)C(C(=O)NC1CCCCC1)c1cc(OC)c(OC)c(OC)c1 (centres undefined) | – | inconclusive: 9.2 µM [falling, partial curve]
COc1cccc(CNc2ccc(S(N)(=O)=O)cc2)c1OCc1ccccc1F | inconclusive: 18.6% | –
O=C1CC(C(=O)Nc2ccccc2)N=C(N2CCCCC2)N1 (centres undefined) | – | inconclusive: 2.31 µM [falling, single point]
Cc1cc(Cl)ccc1C1=CC(=O)C[C@H](c2ccc(F)cc2)C1 | inconclusive: 18.9% | –
COc1ccc(C(=O)NCCCN=C2NS(=O)(=O)c3ccccc32)cc1 | inconclusive: -27.8% | –

SMILES | lipid storage change, negative = inhibition | Potency
O=C(CNC(=O)c1ccc(Br)o1)NCC1CCCCC1 | inconclusive: 13.2% | –
CCCCN1C(=O)/C(=C2/Sc3ccc(Cl)cc3N2CC)SC1=S | – | inconclusive: 29.1 µM [activator, single point]
CC(=O)N1C(=O)NC2=C(C(=O)CCC2)C1c1cccc([N+](=O)[O-])c1 (centres undefined) | inconclusive: -28% | –
COc1ccc(CN2C(=O)C(CC(C)C)Nc3ncnc(N4CCN(c5ccccn5)CC4)c32)cc1 (centres undefined) | – | inconclusive: 29.1 µM [falling, single point]
CCOC(=O)c1ccc(NS(=O)(=O)c2cc3c4c(c2)CCN4C(=O)CC3)cc1 | inconclusive: 54% [activator] [at 0.0737 µM] | –
CC1=NN(c2ccc(C)cc2C)C(=O)C1C(c1ccccc1)C1C(=O)N(c2ccc(C)cc2C)N=C1C (centres undefined) | inconclusive: 436% | –
O=C(COc1ccc(-n2ccnc2)cc1)Nc1cccc(Cl)c1 | – | inconclusive: 29.1 µM [rising, single point]
CCN1CSC(=S)N(Cc2ccccc2)C1 | inconclusive: -26% | –
C=CCc1cc(OC)ccc1OCCOCCN1CCc2ccccc2C1 | inconclusive: 15.2% | –
CCOC(=O)C1CCCN(C(=O)N2CCOCC2)C1 (centres undefined) | – | inconclusive: 6.51 µM [activator, single point]
CC1CN(C(=O)c2cccs2)CCN1C(=O)c1cccs1 (centres undefined) | inconclusive: -34.5% | –
CCOC(=O)c1c(CN2CCOCC2)n(-c2ccccc2)c2cc(Br)c(O)cc12 | inconclusive: -1.29% | –
O=C(CC1C=Cc2ccccc2N1C(=O)c1ccccc1)c1ccccc1 (centres undefined) | inconclusive: -17.6% | –
CN(C)C(=O)CN(C)S(=O)(=O)c1ccc(Cl)cc1 | inconclusive: -1.61% | –
CC(CC(=O)Nc1nc2ccccc2[nH]1)n1ccnc1 (centres undefined) | inconclusive: -11.8% | –
Cc1nc(-c2ccc(S(=O)(=O)Nc3ccc(Br)cc3Cl)s2)cs1 | inconclusive: 22.3% | –
CC(C)N(CCCNC(=O)c1nn(C)c2c1CS(=O)(=O)c1ccccc1-2)Cc1ccccc1 | inconclusive: -9.8% | –
CC(C)C(C(=O)O)N1C(=O)/C(=C/C=C/c2ccco2)SC1=S (centres undefined) | inconclusive: -31.8% | –
COc1cccc(-n2c(CCn3nc(C)c([N+](=O)[O-])c3C)n[nH]c2=S)c1 | inconclusive: 0.144% | –
CCOC(=O)CC1CCCCN1C(=O)CCCn1nnnc1CN1CCC(C)CC1 (centres undefined) | – | inconclusive: 29.1 µM [falling, single point]
O=C(CCC(=O)Nc1ccccc1)N/N=C/C=C/c1ccccc1 | – | inconclusive: 1.84 µM [falling, partial curve]
COc1ccc2c(COC(=O)CCS(=O)(=O)c3ccccc3)cc(=O)oc2c1 | inconclusive: 1.93% | –
O=C(NCCCN1CCCC1=O)c1nnc(Cc2c(F)cccc2Cl)o1 | inconclusive: -28.3% | –
COc1ccc(/C=N/Nc2nc(N3CCCCC3)nc(N3CCCCC3)n2)cc1[N+](=O)[O-] | – | inconclusive: 18.4 µM [rising, partial curve]
Cc1ccc(/C=C2/SC(=S)N(CCC(=O)N3CCN(c4ccccc4)CC3)C2=O)cc1 | – | inconclusive: 32.6 µM [cytotoxic, partial curve, poor fit]

Quoted at random: 2 compounds from above, in no set order.
SMILES | lipid storage change, negative = inhibition | Potency
Cc1nc(-c2ccc(S(=O)(=O)Nc3ccc(Br)cc3Cl)s2)cs1 | inconclusive: 22.3% | –
CN(C)C(=O)CN(C)S(=O)(=O)c1ccc(Cl)cc1 | inconclusive: -1.61% | –

Carrying on:

SMILES | lipid storage change, negative = inhibition | Potency
CCOC(=O)C(NC(=O)Nc1ncccn1)(Oc1ccccc1)C(F)(F)F (centres undefined) | inconclusive: 60.5% | –
CC(=O)Nc1ccc(S(=O)(=O)NCC(=O)NCCCc2ccccc2)cc1 | – | inconclusive: 29.1 µM [falling, single point]
Cc1ccc(NC(=O)COC(=O)CN2CSCC2=O)cc1C | inconclusive: 6.08% | –
CCOc1ccc(S(=O)(=O)N2CCOCC2)cc1NC(=O)CN1C(=O)NC2(CCCCC2)C1=O | inconclusive: -5.44% | –
CCS(=O)(=O)N1CCC(C(=O)NCc2ccc(F)cc2)CC1 | inconclusive: 30.6% | –
CCc1ccc(/C=C2/SC(=S)N(CCCC(=O)Nc3ccccc3C(=O)O)C2=O)cc1 | inconclusive: 30% | –
Cc1ccccc1N(CC(=O)NC1CCCCC1)C(=O)CCC(=O)Nc1nccs1 | – | inconclusive: 2.59 µM [activator, single point]
COC(=O)c1ccc2[nH]c(CO)c(-c3ccccc3)c2c1 | – | inconclusive: 8.2 µM [activator, partial curve]
O=C(CNC(=O)c1ccc(-c2ccccc2)cc1)OCc1ccc(Br)cc1 | inconclusive: -23.8% | –
CCN(CC(=O)Nc1c(F)cccc1F)C(=O)CN1C(=O)C2CCCCC2C1=O (centres undefined) | inconclusive: 13% | –
COC(=O)c1[nH]c2ccccc2c1NC(=O)c1ccccc1F | – | inconclusive: 0.146 µM [activator, full curve, poor fit]
N#Cc1cc(-c2ccccc2)nnc1Sc1ccccc1 | – | inconclusive: 6.51 µM [activator, single point]
CC(/C=N/Nc1nc(C)cc(=O)[nH]1)=C\c1ccccc1 | inconclusive: -2% | –
CN(Cc1ccon1)C(=O)CC1C(=O)NCCN1CC1CCCCC1 (centres undefined) | – | inconclusive: 0.0651 µM [falling, full curve, poor fit]
CCC1=[N+]([O-])C(C)(/C(C)=N\O)N(O)C1(C)C (centres undefined) | – | inconclusive: 29.1 µM [cytotoxic, single point]
CCCS(=O)(=O)N1CCN(c2cc3c(cc2[N+](=O)[O-])n(C)c(=O)n3C)CC1 | inconclusive: -9.82% | –
CC(C)(C)NC(=O)N1CCN(c2nc(-c3ccccc3)ns2)CC1 | – | inconclusive: 6.51 µM [rising, single point]
CCOC(=O)Cc1csc(NC(=O)COc2ccccc2)n1 | – | inconclusive: 0.13 µM [falling, full curve, poor fit]
COc1ccccc1N1C(=O)S/C(=C\c2cccs2)C1=O | inconclusive: 4.12% | –
COc1ccc(CC(=O)NCc2nnc(SCC(=O)c3ccc(OC)cc3)n2C)cc1 | inconclusive: 43% | –
Cc1cccc(/C=C/c2onc(C)c2S(=O)(=O)N2CCC(C(=O)NC(C)(C)C)CC2)c1 | inconclusive: -59.7% | –
COc1nc(Oc2ccc(=O)[nH]n2)nc(N2CCOCC2)n1 | inconclusive: 16.2% | –
COc1cccc(NC(=S)NN=C2CCCCCC2)c1 | inconclusive: 63.2% | –
CCCN(CC(=O)Nc1ccccc1C)C(=O)CSc1ccccc1C | – | inconclusive: 29.1 µM [falling, single point]

As entered above:
Value for COC(=O)c1ccc2[nH]c(CO)c(-c3ccccc3)c2c1 under Potency: inconclusive: 8.2 µM [activator, partial curve]
Value for CCCS(=O)(=O)N1CCN(c2cc3c(cc2[N+](=O)[O-])n(C)c(=O)n3C)CC1 under lipid storage change, negative = inhibition: inconclusive: -9.82%
